Test results from publication PMC6639074.
No constants are given. Whether binding was seen depends on the method and setting. Binding seen in cells or lysates may run through a third protein. Here binding means that the protein was enriched with, or labelled near, the bait; the list need not be complete.

Protein sequences, listed by entry. Tags and fused reporters are not part of them. Lines headed by an entry give the natural chain unless they say otherwise; changes in a name come on top.
UniProt P61019: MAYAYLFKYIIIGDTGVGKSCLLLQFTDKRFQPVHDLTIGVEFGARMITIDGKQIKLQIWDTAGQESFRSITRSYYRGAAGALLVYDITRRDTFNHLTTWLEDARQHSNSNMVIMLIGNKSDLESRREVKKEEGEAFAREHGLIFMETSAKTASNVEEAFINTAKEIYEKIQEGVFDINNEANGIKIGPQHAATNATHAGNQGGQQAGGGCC
UniProt P20340: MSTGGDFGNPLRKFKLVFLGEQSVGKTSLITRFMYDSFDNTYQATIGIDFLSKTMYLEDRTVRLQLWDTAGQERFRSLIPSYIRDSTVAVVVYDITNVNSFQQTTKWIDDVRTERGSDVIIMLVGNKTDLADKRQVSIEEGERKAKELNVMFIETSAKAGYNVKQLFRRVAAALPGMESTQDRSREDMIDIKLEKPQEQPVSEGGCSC

B1: WDR11 (protein, UniProt Q9BZH6 1-1224)
chain: MLPYTVNFKVSARTLTGALNAHNKAAVDWGWQGLIAYGCHSLVVVIDSITAQTLQVLEKHKADVVKVKWARENYHHNIGSPYCLRLASADVNGKIIVWDVAAGVAQCEIQEHAKPIQDVQWLWNQDASRDLLLAIHPPNYIVLWNADTGTKLWKKSYADNILSFSFDPFDPSHLTLLTSEGIVFISDFSPSKPPSGPGKKVYISSPHSSPAHNKLATATGAKKALNKVKILITQEKPSAEFITLNDCLQLAYLPSKRNHMLLLYPREILILDLEVNQTVGVIAIERTGVPFLQVIPCFQRDGLFCLHENGCITLRVRRSYNNIFTTSNEEPDPDPVQELTYDLRSQCDAIRVTKTVRPFSMVCCPVNENAAALVVSDGRVMIWELKSAVCNRNSRNSSSGVSPLYSPVSFCGIPVGVLQNKLPDLSLDNMIGQSAIAGEEHPRGSILREVHLKFLLTGLLSGLPAPQFAIRMCPPLTTKNIKMYQPLLAVGTSNGSVLVYHLTSGLLHKELSIHSCEVKGIEWTSLTSFLSFATSTPNNMGLVRNELQLVDLPTGRSIAFRGERGNDESAIEMIKVSHLKQYLAVVFRDKPLELWDVRTCTLLREMSKNFPTITALEWSPSHNLKSLRKKQLATREAMARQTVVSDTELSIVESSVISLLQEAESKSELSQNISAREHFVFTDIDGQVYHLTVEGNSVKDSARIPPDGSMGSITCIAWKGDTLVLGDMDGNLNFWDLKGRVSRGIPTHRSWVRKIRFAPGKGNQKLIAMYNDGAEVWDTKEVQMVSSLRSGRNVTFRILDVDWCTSDKVILASDDGCIRVLEMSMKSACFRMDEQELTEPVWCPYLLVPRASLALKAFLLHQPWNGQYSLDISHVDYPENEEIKNLLQEQLNSLSNDIKKLLLDPEFTLLQRCLLVSRLYGDESELHFWTVAAHYLHSLSQEKSASTTAPKEAAPRDKLSNPLDICYDVLCENAYFQKFQLERVNLQEVKRSTYDHTRKCTDQLLLLGQTDRAVQLLLETSADNQHYYCDSLKACLVTTVTSSGPSQSTIKLVATNMIANGKLAEGVQLLCLIDKAADACRYLQTYGEWNRAAWLAKVRLNPEECADVLRRWVDHLCSPQVNQKSKALLVLLSLGCFFSVAETLHSMRYFDRAALFVEACLKYGAFEVTEDTEKLITAIYADYARSLKNLGFKQGAVLFASKAGAAGKDLLNELESPKEEPIEE
B2: DENND5B (protein, UniProt Q6ZUT9 1-1274)
chain: MSGSCAAPGPGSGSSPAACRFAHYFVLCGIDADSGLEPDELAGENFDQSPLRRTFKSKVLAHYPQNIEWNPFDQDAVNMLCMPKGLSFRTQTDNKDPQFHSFIITREDGSRTYGFVLTFYEEVTSKQICTAMQTLYQMHNAEHYSSVYASSSCSMDSLASSLDEGDTTSLLKLQRYNSYDISRDTLYVSKSICLITPLPFMQACKKFLIQLYKAVTSQQPPPLPLESYIHNILYEVPLPPPGRSLKFYGVYEPVICQRPGPSELPLSDYPLREAFELLGLENLVQVFTCVLLEMQILLYSQDYQRLMTVAEGITTLLFPFQWQHVYVPILPASLLHFLDAPVPYLMGLQSKEGTDRSKLELPQEANLCFVDIDNHFIELPEEFPQFPNKVDFIQELSEVLVQFGIPPEGSLHCSESTSKLKNMVLKDLVNDKKNGNVCTNNISMYELLKGNETIARLQALAKRTGVAVEKMDLSASLGEKDKDLKLHCEEAELRDYQLNVQLREVFANRFTQMFADYEAFVIQTAQDMESWLTNREQMQNFDKASFLSDQPEPYLPFLSRFIETQMFATFIDNKIMSQWEEKDPLLRVFDTRIDKIRLYNVRAPTLRTSIYQKCSTLKEAAQSIEQRLMKMDHTAIHPHLLDMKIGQGKYEQGFFPKLQSDVLATGPTSNNRWVSRSATAQRRKERLRQHSEHVGLDNDLREKYMQEARSLGKNLRQPKLSDLSPAVIAQTNCKFVEGLLKECRMKTKRMLVEKMGHEAVELGHGEANITGLEENTLIASLCDLLERIWSHGLQVKQGKSALWSHLIQFQDREEKQEHLAESPVALGPERRKSDSGVMLPTLRVSLIQDMRHIQNMSEIKTDVGRARAWIRLSLEKKLLSQHLKQLLSNQPLTKKLYKRYAFLRCEEEREQFLYHLLSLNAVDYFCFTSVFTTIMIPYRSVIIPIKKLSNAIITSNPWICVSGELGDTGVMQIPKNLLEMTFECQNLGKLTTVQIGHDNSGLLAKWLVDCVMVRNEITGHTYRFPCGRWLGKGIDDGSLERILIGELMTSASDEDLVKQCRTPPQQKSPTTARRLSITSLTGKNNKPNAGQIQEGIGEAVNNIVKHFHKPEKERGSLTVLLCGENGLVAALEQVFHHGFKSARIFHKNVFIWDFIEKVVAYFETTDQILDNEDDVLIQKSSCKTFCHYVNAINTAPRNIGKDGKFQILVCLGTRDRLLPQWIPLLAECPAITRMYEESALLRDRMTVNSLIRILQTIQDFTIVLEGSLIKGVDV
B3: bicaudal-1 (protein, UniProt Q96G01 1-975)
chain: MAAEEVLQTVDHYKTEIERLTKELTETTHEKIQAAEYGLVVLEEKLTLKQQYDELEAEYDSLKQELEQLKEAFGQSFSIHRKVAEDGETREETLLQESASKEAYYLGKILEMQNELKQSRAVVTNVQAENERLTAVVQDLKENNEMVELQRIRMKDEIREYKFREARLLQDYTELEEENITLQKLVSTLKQNQVEYEGLKHEIKRFEEETVLLNSQLEDAIRLKEIAEHQLEEALETLKNEREQKNNLRKELSQYISLNDNHISISVDGLKFAEDGSEPNNDDKMNGHIHGPLVKLNGDYRTPTLRKGESLNPVSDLFSELNISEIQKLKQQLMQVEREKAILLANLQESQTQLEHTKGALTEQHERVHRLTEHVNAMRGLQSSKELKAELDGEKGRDSGEEAHDYEVDINGLEILECKYRVAVTEVIDLKAEIKALKEKYNKSVENYTDEKAKYESKIQMYDEQVTSLEKTTKESGEKMAHMEKELQKMTSIANENHSTLNTAQDELVTFSEELAQLYHHVCLCNNETPNRVMLDYYRQSRVTRSGSLKGPDDPRGLLSPRLARRGVSSPVETRTSSEPVAKESTEASKEPSPTKTPTISPVITAPPSSPVLDTSDIRKEPMNIYNLNAIIRDQIKHLQKAVDRSLQLSRQRAAARELAPMIDKDKEALMEEILKLKSLLSTKREQIATLRAVLKANKQTAEVALANLKNKYENEKAMVTETMTKLRNELKALKEDAATFSSLRAMFATRCDEYVTQLDEMQRQLAAAEDEKKTLNTLLRMAIQQKLALTQRLEDLEFDHEQSRRSKGKLGKSKIGSPKVSGEASVTVPTIDTYLLHSQGPQTPNIRVSSGTQRKRQFSPSLCDQSRPRTSGASYLQNLLRVPPDPTSTESFLLKGPPSMSEFIQGHRLSKEKRLTVAPPDCQQPAASVPPQCSQLAGRQDCPTVSPDTALPEEQPHSSSQCAPLHCLSKPPHP
B4: ERC2 (protein, UniProt O15083 1-957)
chain: MYGSARTITNLEGSPSRSPRLPRSPRLGHRRTSSGGGGGTGKTLSMENIQSLNAAYATSGPMYLSDHEGVASTTYPKGTMTLGRATNRAVYGGRVTAMGSSPNIASAGLSHTDVLSYTDQHGGLTGSSHHHHHQVPSMLRQVRDSTMLDLQAQLKELQRENDLLRKELDIKDSKLGSSMNSIKTFWSPELKKERVLRKEEAARMSVLKEQMRVSHEENQHLQLTIQALQDELRTQRDLNHLLQQESGNRGAEHFTIELTEENFRRLQAEHDRQAKELFLLRKTLEEMELRIETQKQTLNARDESIKKLLEMLQSKGLPSKSLEDDNERTRRMAEAESQVSHLEVILDQKEKENIHLREELHRRSQLQPEPAKTKALQTVIEMKDTKIASLERNIRDLEDEIQMLKANGVLNTEDREEEIKQIEVYKSHSKFMKTKIDQLKQELSKKESELLALQTKLETLSNQNSDCKQHIEVLKESLTAKEQRAAILQTEVDALRLRLEEKESFLNKKTKQLQDLTEEKGTLAGEIRDMKDMLEVKERKINVLQKKIENLQEQLRDKDKQLTNLKDRVKSLQTDSSNTDTALATLEEALSEKERIIERLKEQRERDDRERLEEIESFRKENKDLKEKVNALQAELTEKESSLIDLKEHASSLASAGLKRDSKLKSLEIAIEQKKEECSKLEAQLKKAHNIEDDSRMNPEFADQIKQLDKEASYYRDECGKAQAEVDRLLEILKEVENEKNDKDKKIAELESLTLRHMKDQNKKVANLKHNQQLEKKKNAQLLEEVRRREDSMADNSQHLQIEELMNALEKTRQELDATKARLASTQQSLAEKEAHLANLRIERRKQLEEILEMKQEALLAAISEKDANIALLELSASKKKKTQEEVMALKREKDRLVHQLKQQTQNRMKLMADNYDDDHHHYHHHHHHHHHRSPGRSQHSNHRPSPDQDDEEGIWA
B5: TMF1 (protein, UniProt P82094 1-1093)
chain: MSWFNASQLSSFAKQALSQAQKSIDRVLDIQEEEPSIWAETIPYGEPGISSPVSGGWDTSTWGLKSNTEPQSPPIASPKAITKPVRRTVVDESENFFSAFLSPTDVQTIQKSPVVSKPPAKSQRPEEEVKSSLHESLHIGQSRTPETTESQVKDSSLCVSGETLAAGTSSPKTEGKHEETVNKESDMKVPTVSLKVSESVIDVKTTMESISNTSTQSLTAETKDIALEPKEQKHEDRQSNTPSPPVSTFSSGTSTTSDIEVLDHESVISESSASSRQETTDSKSSLHLMQTSFQLLSASACPEYNRLDDFQKLTESCCSSDAFERIDSFSVQSLDSRSVSEINSDDELSGKGYALVPIIVNSSTPKSKTVESAEGKSEEVNETLVIPTEEAEMEESGRSATPVNCEQPDILVSSTPINEGQTVLDKVAEQCEPAESQPEALSEKEDVCKTVEFLNEKLEKREAQLLSLSKEKALLEEAFDNLKDEMFRVKEESSSISSLKDEFTQRIAEAEKKVQLACKERDAAKKEIKNIKEELATRLNSSETADLLKEKDEQIRGLMEEGEKLSKQQLHNSNIIKKLRAKDKENENMVAKLNKKVKELEEELQHLKQVLDGKEEVEKQHRENIKKLNSMVERQEKDLGRLQVDMDELEEKNRSIQAALDSAYKELTDLHKANAAKDSEAQEAALSREMKAKEELSAALEKAQEEARQQQETLAIQVGDLRLALQRTEQAAARKEDYLRHEIGELQQRLQEAENRNQELSQSVSSTTRPLLRQIENLQATLGSQTSSWEKLEKNLSDRLGESQTLLAAAVERERAATEELLANKIQMSSMESQNSLLRQENSRFQAQLESEKNRLCKLEDENNRYQVELENLKDEYVRTLEETRKEKTLLNSQLEMERMKVEQERKKAIFTQETIKEKERKPFSVSSTPTMSRSSSISGVDMAGLQTSFLSQDESHDHSFGPMPISANGSNLYDAVRMGAGSSIIENLQSQLKLREGEITHLQLEIGNLEKTRSIMAEELVKLTNQNDELEEKVKEIPKLRTQLRDLDQRYNTILQMYGEKAEEAEELRLDLEDVKNMYKTQIDELLRQSLS
B6: MB21D2 (protein, UniProt Q8IYB1 1-491)
chain: MKMAAPTANKAASLGCNNKPAFPELDFRSGARVEELNKLIQEFTKHDQREYDDQRALEIHTAKDFIFSMLGMVQKLDQKLPVANEYLLLSGGVREGVVDLDLDELNVYARGTDYDMDFTLLVPALKLHDRNQPVTLDMRHSALCHSWLSLRLFDEGTISKWKDCCTIVDHINGATNYFFSPTKVADWFYDSISIVLSEIQKKPQRGMPKVEKVEKNGTIISIILGVGSSRMLYDIVPVVSFKGWPAVAQSWLMENHFWDGKITEEEVISGFYLVPACSYKGKKDNEWRLSFARSEVQLKKCISSSLMQAYQACKAIIIKLLSRPKAISPYHLRSMMLWACDRLPANYLAQEDYAAHFLLGLIDDLQHCLVNKMCPNYFIPQCNMLEHLSEETVMLHARKLSSVRSDPAEHLRTAIEHVKAANRLTLELQRRGSTTSIPSPQSDGGDPNQPDDRLAKKLQQLVTENPGKSISVFINPDDVTRPHFRIDDKFF

Target: Rab2A(Q65L)-BirA*-HA-MAO (human) (UniProt P61019)
Assay: proximity labelling; MitoID: GTPase-BirA*-HA-MAO chimera on mitochondria of transiently transfected HEK293T cells, 50 uM biotin 18 h, streptavidin beads, mass spectrometry, biological triplicates; hits by WD scores and volcano plots against the GDP-locked forms

binding, binds:
B1

Target: Rab6A(Q72L)-BirA*-HA-MAO (human) (UniProt P20340)
Assay: as above

binding, binds:
B2
B3
B4
B5
B6
